According to article PMC6353870:
Results are given in words; binding and its absence hold for the method and conditions named. In cells and extracts the contact can be indirect. Some binding calls cover weakened binding; strength is not graded here. Tags and fused reporters may be left off the sequences shown.

Amino acid sequences for entries named in this document (tags omitted).
UniProt Q01844: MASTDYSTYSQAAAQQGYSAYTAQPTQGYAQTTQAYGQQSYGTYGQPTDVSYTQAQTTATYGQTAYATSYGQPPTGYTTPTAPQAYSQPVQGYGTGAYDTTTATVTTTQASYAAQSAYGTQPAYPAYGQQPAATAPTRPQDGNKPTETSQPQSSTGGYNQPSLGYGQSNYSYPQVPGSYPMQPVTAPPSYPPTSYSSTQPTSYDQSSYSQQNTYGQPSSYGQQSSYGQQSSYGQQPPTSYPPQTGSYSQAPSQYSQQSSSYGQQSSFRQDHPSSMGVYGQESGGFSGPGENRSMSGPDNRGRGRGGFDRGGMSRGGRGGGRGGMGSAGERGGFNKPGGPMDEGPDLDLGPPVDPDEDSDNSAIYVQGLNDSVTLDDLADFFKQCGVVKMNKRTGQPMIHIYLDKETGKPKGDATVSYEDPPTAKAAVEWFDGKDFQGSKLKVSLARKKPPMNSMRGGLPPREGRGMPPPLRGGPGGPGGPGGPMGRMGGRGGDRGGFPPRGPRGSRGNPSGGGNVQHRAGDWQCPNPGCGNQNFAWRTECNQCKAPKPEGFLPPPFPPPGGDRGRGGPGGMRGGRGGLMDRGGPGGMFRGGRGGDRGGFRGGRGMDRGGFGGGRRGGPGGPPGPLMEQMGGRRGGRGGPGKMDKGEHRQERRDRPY

Columns and labels:
3xflag-EWSR1 = 3xflag-EWSR1 (UniProt Q01844); assay: co-IP; 3xflag proteins co-expressed with 3xmyc-USP19 in HEK293 cells for 48 h; interactor lysis buffer 2 (50 mM Tris/HCl, 50 mM NaCl, 1.5 mM MgCl2, 10% glycerol, 0.3% NP40, phosphatase inhibitors); anti-Flag antibody on Dynabeads ProteinG, 30 min at 4 °C; eluted with 3xFlag peptide; western blot
3xflag-FLI1 = target: T1, 3xflag-FLI1 (UniProt Q01543); assay: as above
T1 sequence: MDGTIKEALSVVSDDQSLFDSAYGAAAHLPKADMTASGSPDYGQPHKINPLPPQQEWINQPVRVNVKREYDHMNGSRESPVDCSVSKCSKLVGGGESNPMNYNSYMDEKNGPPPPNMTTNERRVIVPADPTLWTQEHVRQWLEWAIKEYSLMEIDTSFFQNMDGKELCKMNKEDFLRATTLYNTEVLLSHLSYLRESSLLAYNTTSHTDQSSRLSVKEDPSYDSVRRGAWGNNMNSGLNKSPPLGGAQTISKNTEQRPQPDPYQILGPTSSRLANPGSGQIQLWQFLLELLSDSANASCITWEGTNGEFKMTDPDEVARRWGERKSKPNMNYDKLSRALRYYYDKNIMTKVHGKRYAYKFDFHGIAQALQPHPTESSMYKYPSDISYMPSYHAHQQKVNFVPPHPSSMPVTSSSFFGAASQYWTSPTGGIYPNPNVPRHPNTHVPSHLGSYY

binding (3xflag-EWSR1): binds
binding (3xflag-FLI1): no binding
B1: 3xmyc-USP19 (ubiquitin specific protease 19) (enzyme, UniProt O94966 1-1318)
chain: MSGGASATGPRRGPPGLEDTTSKKKQKDRANQESKDGDPRKETGSRYVAQAGLEPLASGDPSASASHAAGITGSRHRTRLFFPSSSGSASTPQEEQTKEGACEDPHDLLATPTPELLLDWRQSAEEVIVKLRVGVGPLQLEDVDAAFTDTDCVVRFAGGQQWGGVFYAEIKSSCAKVQTRKGSLLHLTLPKKVPMLTWPSLLVEADEQLCIPPLNSQTCLLGSEENLAPLAGEKAVPPGNDPVSPAMVRSRNPGKDDCAKEEMAVAADAATLVDEPESMVNLAFVKNDSYEKGPDSVVVHVYVKEICRDTSRVLFREQDFTLIFQTRDGNFLRLHPGCGPHTTFRWQVKLRNLIEPEQCTFCFTASRIDICLRKRQSQRWGGLEAPAARVGGAKVAVPTGPTPLDSTPPGGAPHPLTGQEEARAVEKDKSKARSEDTGLDSVATRTPMEHVTPKPETHLASPKPTCMVPPMPHSPVSGDSVEEEEEEEKKVCLPGFTGLVNLGNTCFMNSVIQSLSNTRELRDFFHDRSFEAEINYNNPLGTGGRLAIGFAVLLRALWKGTHHAFQPSKLKAIVASKASQFTGYAQHDAQEFMAFLLDGLHEDLNRIQNKPYTETVDSDGRPDEVVAEEAWQRHKMRNDSFIVDLFQGQYKSKLVCPVCAKVSITFDPFLYLPVPLPQKQKVLPVFYFAREPHSKPIKFLVSVSKENSTASEVLDSLSQSVHVKPENLRLAEVIKNRFHRVFLPSHSLDTVSPSDTLLCFELLSSELAKERVVVLEVQQRPQVPSVPISKCAACQRKQQSEDEKLKRCTRCYRVGYCNQLCQKTHWPDHKGLCRPENIGYPFLVSVPASRLTYARLAQLLEGYARYSVSVFQPPFQPGRMALESQSPGCTTLLSTGSLEAGDSERDPIQPPELQLVTPMAEGDTGLPRVWAAPDRGPVPSTSGISSEMLASGPIEVGSLPAGERVSRPEAAVPGYQHPSEAMNAHTPQFFIYKIDSSNREQRLEDKGDTPLELGDDCSLALVWRNNERLQEFVLVASKELECAEDPGSAGEAARAGHFTLDQCLNLFTRPEVLAPEEAWYCPQCKQHREASKQLLLWRLPNVLIVQLKRFSFRSFIWRDKINDLVEFPVRNLDLSKFCIGQKEEQLPSYDLYAVINHYGGMIGGHYTACARLPNDRSSQRSDVGWRLFDDSTVTTVDESQVVTRYAYVLFYRRRNSPVERPPRAGHSEHHPDLGPAAEAAASQASRIWQELEAEEEPVPEGSGPLGPWGPQDWVGPLPRGPTTPDEGCLRYFVLGTVAALVALVLNVFYPLVSQSRWR
